Experimental data from PubChem BioAssay AID2685 (National Center for Advancing Translational Sciences (NCATS), 2010).
This is one part of the list. These are further read-outs of the screen, such as a control signal, another cell line or another target. No call is given for them. Most of these compounds were active or inconclusive in the main read-out, so they are no random draw. Words in brackets tell the shape of the fitted curve; partial curves, single points and poor fits give uncertain potencies.

Assay: qHTS Assay for Lipid Storage Modulators in Drosophila S3 Cells;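 for cell number change: cells counted by Cell Tracker Red CMTPX staining in the red channel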
Conditions: BODIPY lipid droplet fluorescence, 18-24 h; for cell number change: measured here: cell count max response, cells fed with added oleic acid
Procedure, shortened: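 Drosophila S3 cells got compounds at several concentrations plus oleic acid (400 uM solution). Laser-scanning cytometry with 488 nm excitation read lipid droplets at 500-530 nm and cells at 575-640 nm. Percent activity was relative to 20 uM Triacsin C.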

[1] = measured here: lipid fluorescence (Fed channel) AC50, cells fed with added oleic acid
[2] = measured here: cell number channel AC50, cells fed with added oleic acid

In the case of `O=C1CSC(=S)N1CC1CCCO1` (stereo not drawn), the cell number change is reported as -0.13% and the AC50 [1] is reported as 18.4 µM [rising, partial curve, poor fit].
For `COn1c(-c2ccccc2)nc2ccc(Cl)cc21`, the cell number change was -62.4%.
With `O=C1C(Cc2cccc([N+](=O)[O-])c2)S/C(=N/N=C/c2ccco2)N1c1ccccc1` (stereo not drawn) the cell number change was -22.1%, the AC50 [2] was 6.51 µM [falling, single point] and the AC50 [1] was 29.1 µM [rising, single point].
Work on `COc1ccc(C(C)=O)cc1CSC(=N)N` yielded a cell number change of 17.1%.
In the case of `CCCCn1c(SCn2nnc3ccccc3c2=O)nc2cc(C(=O)OC)ccc2c1=O`, the cell number change is reported as -7.49% and the AC50 [2] is reported as 0.00411 µM [falling, full curve, poor fit].
In the case of `O=C(NC1CCCc2ccccc21)c1n[nH]c(=O)c2ccccc12` (stereo not drawn), the cell number change is reported as 19.4%, the AC50 [2] is reported as 0.0731 µM [falling, full curve, poor fit] and the AC50 [1] is reported as 9.2 µM [rising, single point].
In the case of `COc1ccc(-n2nc(C(=O)NCC(=O)N3CC(C)CC(C)C3)c3ccccc3c2=O)cc1OC` (stereo not drawn), the cell number change is reported as 38.5%, the AC50 [2] is reported as 14.6 µM [rising, partial curve, poor fit] and the AC50 [1] is reported as 5.17 µM [falling, single point].
With `CCN1/C(=C/C=C/C=C/c2sc3ccccc3[n+]2CC)Sc2ccccc21` the cell number change was -81.8%, the AC50 [2] was 1.03 µM [falling, full curve] and the AC50 [1] was 1.3 µM [falling, full curve].
`Cc1ccc(CNC(=O)CN2C(=O)COc3ccc(S(=O)(=O)N4CCC(C)CC4)cc32)o1` showed a cell number change of 9.56%.
Work on `OC1CCN(C(=S)Nc2ccc(Nc3ccccc3)cc2)CC1` yielded a cell number change of -27.9%.
Work on `CC1CCc2[nH]c3ccc(C(=O)Nc4ccc(C(=O)N(C)C)cc4)cc3c2C1` (stereo not drawn) yielded a cell number change of -2.16%.
In the case of `CCc1ccc(NC(=O)CCC(=O)Nc2nnc(C(C)C)s2)cc1`, the cell number change is reported as 6.49% and the AC50 [1] is reported as 29.1 µM [falling, single point].
For `COC(=O)c1ccc(C)c(N(CCO)CCO)c1`, the cell number change was 5.83% and the AC50 [1] was 6.51 µM [falling, single point].
In the case of `CC(C(=O)N=Nc1c(O)[nH]c2ccccc12)n1cnc2ccccc2c1=O` (stereo not drawn), the cell number change is reported as 58.1%, the AC50 [2] is reported as 18.4 µM [rising, single point] and the AC50 [1] is reported as 0.291 µM [rising, partial curve, poor fit].
In the case of `O=C(Nc1nnc(S(=O)(=O)N2CCCC2)s1)c1cccc([N+](=O)[O-])c1`, the cell number change is reported as -11.8% and the AC50 [1] is reported as 2.06 µM [rising, partial curve].
With `CC1(c2ccc3noc(-c4ccc(Cl)cc4)c3c2)OCCO1` the cell number change was 30.7% and the AC50 [2] was 20.6 µM [rising, single point].
In the case of `O=C1C(=O)N2C(=C1C(=O)N1CCCCCC1)c1ccccc1CC21CCCC1`, the AC50 [1] is reported as 0.731 µM [falling, full curve].
